Experimental data reported in US20260104418A1.
These are yes or no findings as the source states them, for the method shown. Binding can be weak; no strength is given. Where a sequence is shown, tags or fusion partners need not be part of it.

Chains of the proteins cited; added tags and fusions are not shown. Lines headed by an entry give the natural chain unless they say otherwise; changes in a name come on top.
UniProt P08637: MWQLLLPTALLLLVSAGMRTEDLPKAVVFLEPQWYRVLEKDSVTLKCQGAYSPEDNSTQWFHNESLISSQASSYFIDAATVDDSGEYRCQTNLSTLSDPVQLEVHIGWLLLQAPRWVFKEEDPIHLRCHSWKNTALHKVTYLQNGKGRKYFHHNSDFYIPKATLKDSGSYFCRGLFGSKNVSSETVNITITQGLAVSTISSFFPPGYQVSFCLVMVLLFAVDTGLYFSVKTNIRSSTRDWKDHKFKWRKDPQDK

B1: 02-0307-h4-CD16A_His (CLDN18.2-CD16A TandAb) (bispecific antibody)
chain: QVQLVQSGAEVKKPGESLKVSCKASGYTFTSYYMHWVRQAPGQGLEWMGIINPSGGSTSYAQKFQGRVTMTRDTSTSTVYMELSSLRSEDTAVYYCARGSAYYYDFADYWGQGTLVTVSSGGSGGSGGSDIVMTQSPDSLAVSLGERVTMNCKSSQSLLNSGNQKNYLSWYQQKPGQPPKLLFYWASTRESGVPDRFSGSGSGTDFTLTISSVQAEDVAVYYCQNDYSYPFTFGQGTKLEIKGGSGGSGGSEVQLLESGGGLVQPGGSLRLSCAASGFTFSSYTMSWVRQAPGKGLEWVATIIIGGSYTYYADSVKGRFTISRDNSKNTLYLQMNSLRAEDTAVYYCTRLVKGNAMDYWGQGTLVTVSSGGSGGSGGSSYVLTQPSSVSVAPGQTATISCGGHNIGSKNVHWYQQRPGQSPVLVIYQDNKRPSGIPERFSGSNSGNTATLTISGTQAMDEADYYCQVWDNYSVLFGGGTKLTVLHHHHHH
B2: 02-0358-h3-CD16A-His (CLDN18.2-CD16A TandAb) (bispecific antibody)
chain: QVQLVQSGAEVKKPGESLKVSCKASGYTFTSYYMHWVRQAPGQGLEWMGIINPSGGSTSYAQKFQGRVTMTRDTSTSTVYMELSSLRSEDTAVYYCARGSAYYYDFADYWGQGTLVTVSSGGSGGSGGSDIVMTQSPDSLAVSLGERVTMNCKSSQSLFNSGNQRNYLTWYQQKPGQPPKLLIYWASTRESGVPDRFSGSGSGTDFTLTISSVQAEDVAVYYCQNVYIYPLTFGQGTKLEIKGGSGGSGGSEVQLVESGGGLVQPGGSLRLSCAVSGFTFSSFGMHWVRQAPGKGLEWVAYISSGTTNIYYADSVKGRFTVSRDNAKNSLYLQMNSLRAEDTAVYYCVRSGYYGNSLDYWGQGTLVTVSSGGSGGSGGSSYVLTQPSSVSVAPGQTATISCGGHNIGSKNVHWYQQRPGQSPVLVIYQDNKRPSGIPERFSGSNSGNTATLTISGTQAMDEADYYCQVWDNYSVLFGGGTKLTVLHHHHHH

Target: CD16A (UniProt P08637)
Assay: flow cytometry, anti-His AF647 detection, Jurkat-Lucia-NFAT-CD16A cells

Binder | binding
B1 | binds
B2 | binds
